From PubChem BioAssay AID1347426 (Functional Genomics Laboratory (NCATS/FGL), 2020)
In all, about 31,000 sequences went through this assay and about 1,400 (4.5%) were called active.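 Rule for the calls: active = median seed-adjusted z-score above 1 or below -1; inactive = the rest.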 The list shows a part of the results.

Assay: Novel Modifiers of Survival Motor Neuron (SMN) Protein: Gene Identification via Genome-wide siRNA Screen;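 note: luminescence tracks full-length SMN protein made from the SMN2 reporter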
Conditions: HEK293T SMN2-luciferase reporter, siRNA knockdown, 72 h; actives lie on both sides
In short: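 Luciferase signal, proportional to full-length SMN made from an SMN2 cDNA reporter in stable HEK293T cells, was read 72 h after siRNA reverse transfection. Values were expressed as MAD scores after non-targeting-control normalization and log10 conversion; seed analysis flagged off-targets.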
For GAGAAAACAUCGACCUUCATT against NINJ2, the median seed-adjusted z-score was inactive: 0.133.
With GCUUUUACUCAAAACCAGATT against HESX1 the median seed-adjusted z-score was inactive: 0.3.
In the case of GGAAGAACGUGAUUCCACATT against EXDL2, the median seed-adjusted z-score is reported as inactive: -0.0717.
For AGCGAAUCGUCACCACUUATT against DNM2, the median seed-adjusted z-score was inactive: 0.00254.
For GGCACUAUCUUACUUAGCATT against LMLN, the median seed-adjusted z-score was inactive: 0.
With CGUUCGUGGUCAACAGGAATT against WBSCR17 the median seed-adjusted z-score was inactive: 0.
With CGAAAGGAGUCUUCACCAATT against PRDX6 the median seed-adjusted z-score was inactive: -0.0302.
In the case of GCUACAUGAUGGUAUCCUUTT against FZD3, the median seed-adjusted z-score is reported as inactive: -0.0208.
With CCACCAACGAAGAACUGGATT against STX1B the median seed-adjusted z-score was inactive: 0.229.
In the case of CAAUGAGACGGAGUUGACATT against KRT7, the median seed-adjusted z-score is reported as inactive: 0.
For CGGACCGGCAGAGAACAAATT against PLA2G10, the median seed-adjusted z-score was active: 1.07.
With GAACUAAUAGGGACUAGAATT against SLC16A13 the median seed-adjusted z-score was inactive: -0.0537.
For CAUGUACUGUACUUCCCAATT against HSD11B2, the median seed-adjusted z-score was inactive: 0.215.
In the case of GGAAGGAAUUCAACCGGAUTT against ZNF366, the median seed-adjusted z-score is reported as inactive: 0.585.
With AGUAUGUGGUACAACUGAATT against CCRK the median seed-adjusted z-score was inactive: -0.47.
With GGCAAUACCUUAGUGCUCATT against ALDH1L2 the median seed-adjusted z-score was inactive: 0.
With GGAGAAGCCUUAGUAGGCATT against SRPR the median seed-adjusted z-score was inactive: 0.242.
For GGGAUAUGCUUGUUAAUAUTT against BLMH, the median seed-adjusted z-score was inactive: -0.156.
For GAACGUAACAGACAGGUGATT against MEF2C, the median seed-adjusted z-score was inactive: -0.632.
For CGGGAGUGGUUUUCAGAGATT against APOC1, the median seed-adjusted z-score was inactive: 0.
For GCAGAAGACUAGAGAGACUTT against ABCC5, the median seed-adjusted z-score was inactive: 0.00533.
For GAAACCAUCCAAUCCAAGATT against TXNDC2, the median seed-adjusted z-score was active: -1.29.
With GCUGGAGCUAUGUCACUCATT against NEIL1 the median seed-adjusted z-score was inactive: -0.168.
For AGAAACUGAUGAGAACGGATT against WWOX, the median seed-adjusted z-score was inactive: -0.583.
For GGACCUUAGCAGCAACAAUTT against LRIG3, the median seed-adjusted z-score was inactive: 0.882.
With CUUCAAUACUUGACUGUAUTT against MGAT2 the median seed-adjusted z-score was inactive: -0.124.
For CGUGAAGAAGUAUCGAUAUTT against DLG2, the median seed-adjusted z-score was inactive: 0.133.
With GAAGAACAAAGGUGCUAAATT against PDCD11 the median seed-adjusted z-score was inactive: -0.335.
In the case of AGACGGAACUCUGUCACAATT against ZFP36, the median seed-adjusted z-score is reported as inactive: 0.106.
For GAGACUCAAUGAACUAUGUTT against ABCD2, the median seed-adjusted z-score was inactive: -0.102.
